{"source": "patent US9422339B2", "about": "“Immunomodulating cyclic compounds” (Aurigene Discovery Technologies Limited, priority 2012, dated 2016)", "test_system": "B16F10 cells", "assay": "In vivo efficacy on lung metastasis in B16F10 subcutaneous melanoma model", "conditions": "C57/Black6 female mice, 5 mg/kg subcutaneously once daily for fourteen days, lung harvested at end of dosing", "method": "C57/Black6 female mice (Aurigene, Bangalore, India) aged 6 to 8 weeks were used for the experiment. Animals were acclimatized for a week in the experimental room before conducting the experiment. On day 0, B16F10 cells grown in DMEM containing 10% FBS at 70 to 75% confluency were harvested and 0.1×10^6 cells per animal were injected to mice subcutaneously on the right flank region. On day 1, peptide (Compound #2) at 5 mg/kg dose dissolved in PBS, pH 7.4 was dosed subcutaneously at the rate of 10 ml/kg volume for fourteen days once daily. Vehicle control group of mice received only saline. Taxol at 5 MPK (i.p) with qd dosing was used as reference in this study. Each group consisted of ten animals. Body weight and clinical signs were recorded daily. […] At the end of 14 days of dosing period lung was harvested and analysed for metastasis by counting the black nodules.", "note": "Not every detail of the peptide structures is certain; ends, links or a residue may be inferred. At least one structure is not confirmed: it was looked up by name or label, or the drawing left a doubt. Where a SMILES comes first, the peptide text is derived from it. Bridges are numbered along the chain shown (N, C = ends)."}
{"smiles": "C[C@@H](O)[C@@H]1NC(=O)[C@@H](NC(=O)[C@@H](N)CO)CCC(=O)NCCCC[C@@H](C(=O)N[C@@H](CO)C(=O)N[C@@H](Cc2ccccc2)C(N)=O)NC(=O)[C@H](CO)NC1=O", "note": "[Compound 2] (H-SETSKSF-NH2; lactam 2-5)", "values": [{"measurement": "reduction in metastasis (lung, black nodules counted)", "result": "about 54%"}]}
